Test system: hyperglycemic and hypoinsulinemic Type 1 rat models (Streptozotocin)
Assay: Fasting plasma insulin in STZ Type 1 rat model
Type: in vivo

| Compound | Fasting plasma insulin (EMD 75 mg/kg b.i.d. oral in combination with insulin pellets, day 8) [pmol/L] | Fasting plasma insulin (EMD 75 mg/kg b.i.d. oral in combination with insulin pellets, day 15) [pmol/L] | Fasting plasma insulin (EMD 75 mg/kg b.i.d. oral in combination with insulin pellets, day 22) [pmol/L] | Fasting plasma insulin (EMD 75 mg/kg b.i.d. oral in combination with insulin pellets, day 36) [pmol/L] | Fasting plasma insulin (EMD 150 mg/kg b.i.d. oral in combination with insulin pellets, day 8) [pmol/L] | Fasting plasma insulin (EMD 150 mg/kg b.i.d. oral in combination with insulin pellets, day 15) [pmol/L] | Fasting plasma insulin (EMD 150 mg/kg b.i.d. oral in combination with insulin pellets, day 22) [pmol/L] | Fasting plasma insulin (EMD 150 mg/kg b.i.d. oral in combination with insulin pellets, day 36) [pmol/L] | Fasting plasma insulin (insulin pellets 3 U per 24 h alone, day 8) [pmol/L] | Fasting plasma insulin (insulin pellets 3 U per 24 h alone, day 15) [pmol/L] | Fasting plasma insulin (insulin pellets 3 U per 24 h alone, day 22) [pmol/L] | Fasting plasma insulin (insulin pellets 3 U per 24 h alone, day 36) [pmol/L] |
| --- | --- | --- | --- | --- | --- | --- | --- | --- | --- | --- | --- | --- |
| CC1NC(=N)N=C(N(C)C)N1 (stereo not drawn) [EMD, 5,6-dihydro-4-dimethylamino-2-imino-6-methyl-1,3,5-triazine] | 666 | 602 | 592 | 475 | 586 | 635 | 558 | 496 | – | – | – | – |
| control + insulin: subcutaneously implanted insulin pellets releasing 3 U per 24 h (Limplant LINSHIN CANADA); insulin alone group | – | – | – | – | – | – | – | – | 653 | 597 | 496 | 459 |

From patent US8592370B2, “Combination of insulin with triazine derivatives” (Poxel S.A.S., priority 2008, dated 2013)
